Measurements taken from patent publication US6156724A (priority 1998, dated 2000).

Assays:
[1] = general procedure: solution-phase peptide synthesis; EDC/HOBT; DCC
[2] = tested on: concanavalin A-induced lymphoblasts (Con A splenocytes); assay: Lymphoblast viability (LbV) assay; conditions: therapeutic index
[3] = tested on: Balb/c splenocytes (resting lymphocytes); assay: Lymphocyte viability (LcV) assay; format: cell-based, murine; conditions: therapeutic index
Protocol: Forty two (42) didemnin compounds (see Table 1) were evaluated for cytotoxicity to one of the lymphocyte populations in the MLR (i.e., Balb/c splenocytes). The purpose of the lymphocyte viability assay (LcV) is to measure metabolic activity in lymphocytes after they have been exposed to the compounds for the duration of an under conditions equivalent to the MLR. The inverse of the data yields cytotoxicity information about the compounds on murine lymphocytes. The rationale of using resting cells, in this case unstimulated lymphocytes, to measure cytotoxicity has a strategic importance. In the MLR the heterogenous cell populations are predominantly resting cells when the assay begins.
Test compounds were prepared in two sets as described above. Splenocytes were prepared as described previously from one murine strain (Balb/c), and a volume of 200 μL of the cell suspension was added to one set of test compounds and control wells.
Assay plates were incubated as in the MLR and then pulsed overnight 75 μL per well MTT-thiazolyl blue solution (150 μg). The plates were decanted and the resulting insoluble formazan crystals were dissolved in 200 μL of isopropyl alcohol. Absorbance at 570 nm was measured.
The LcV data were calculated as a percentage of basal metabolic activity, or percent viability, relative to BALB/c control, and an LC50 value was interpolated for each test compound.

[Propionyl^9 ]Didemnin B
step yield ([1]; coupling step): 93%

[Acetyl^9 ]Didemnin B
step yield ([1]; coupling step): 88%

[H6 -N-MePhe^6 ]Didemnin B
step yield ([1]; late stage modification step): 32%

[Isobutyryl^9 ]Didemnin B
step yield ([1]; coupling step): 28%

CC[C@H](C)[C@H]1NC(=O)[C@@H](NC(=O)[C@@H](CC(C)C)N(C)C(=O)[C@@H]2CCCN2C(=O)[C@H](C)OC(=O)[C@@H]2CCC(=O)N2)[C@@H](C)OC(=O)[C@H](Cc2ccc(OC)cc2)N(C)C(=O)[C@@H]2CCCN2C(=O)[C@H](CC(C)C)NC(=O)[C@@H](C)C(=O)[C@H](C(C)C)OC(=O)C[C@@H]1O [Compound 37, O-Pyroglutamyldidemnin B] ([pGlu][Lac]P[dNMeL]T[X1]LP[NMeY](Me); ester 5-C)
ratio LbV (LC50)/MLR (IC50) [2]: 15
ratio LcV (LC50)/MLR (IC50) [3]: > 1,500,000 and 1,500,000

CC[C@H](C)[C@H]1NC(=O)[C@@H](NC(=O)[C@@H](CC(C)C)N(C)C(=O)[C@@H]2CCCN2C(=O)[C@H](C)OC(=O)[C@H](CCC(N)=O)NC(=O)[C@H](CCC(N)=O)NC(=O)[C@@H]2CCC(=O)N2)[C@@H](C)OC(=O)[C@H](Cc2ccc(OC)cc2)N(C)C(=O)[C@@H]2CCCN2C(=O)[C@H](CC(C)C)NC(=O)[C@@H](C)C(=O)[C@H](C(C)C)OC(=O)C[C@@H]1O [Compound 39, Didemnin E] ([pGlu]QQ[Lac]P[dNMeL]T[X1]LP[NMeY](Me); ester 7-C)
ratio LbV (LC50)/MLR (IC50) [2]: 169
ratio LcV (LC50)/MLR (IC50) [3]: > 800,000

CC[C@H](C)[C@H]1NC(=O)[C@@H](NC(=O)[C@@H](CC(C)C)N(C)C(=O)[C@@H]2CCCN2C(C)=O)[C@@H](C)OC(=O)[C@H](Cc2ccc(OC)cc2)N(C)C(=O)[C@@H]2CCCN2C(=O)[C@H](CC(C)C)NC(=O)[C@@H](C)C(=O)[C@H](C(C)C)OC(=O)C[C@@H]1O [Compound 31, [Acetyl^9]Didemnin B] (Ac-P[dNMeL]T[X1]LP[NMeY](Me); ester 3-C)
ratio LbV (LC50)/MLR (IC50) [2]: 1
ratio LcV (LC50)/MLR (IC50) [3]: 14,000

CC[C@H](C)[C@H]1NC(=O)[C@@H](NC(=O)[C@@H](CC(C)C)N(C)C(=O)OCc2ccccc2)[C@@H](C)OC(=O)[C@H](Cc2ccc(OC)cc2)N(C)C(=O)[C@@H]2CCCN2C(=O)[C@H](CC(C)C)NC(=O)[C@@H](C)C(=O)[C@H](C(C)C)OC(=O)C[C@H]1O [Compound 4, Z-[(3R,4R,5S)Ist^2]Didemnin A] (Cbz-[dNMeL]T[X6]LP[NMeY](Me); ester 2-C)
ratio LbV (LC50)/MLR (IC50) [2]: 12
ratio LcV (LC50)/MLR (IC50) [3]: 500

CCCCCCCC(=O)N(C)[C@H](CC(C)C)C(=O)N[C@@H]1C(=O)N[C@H]([C@@H](C)CC)[C@@H](O)CC(=O)O[C@@H](C(C)C)C(=O)[C@H](C)C(=O)N[C@@H](CC(C)C)C(=O)N2CCC[C@H]2C(=O)N(C)[C@@H](Cc2ccc(OC)cc2)C(=O)O[C@@H]1C [Compound 23, N^α -Octanoyldidemnin A] (Octanoyl-[dNMeL]T[X1]LP[NMeY](Me); ester 2-C)
ratio LbV (LC50)/MLR (IC50) [2]: 4
ratio LcV (LC50)/MLR (IC50) [3]: 1,800

Didemnin X [Compound 41]
ratio LbV (LC50)/MLR (IC50) [2]: 6
ratio LcV (LC50)/MLR (IC50) [3]: > 2,000

CC[C@H](C)[C@H]1NC(=O)[C@@H](NC(=O)[C@@H](CC(C)C)N(C)C(=O)OCc2ccccc2)[C@@H](C)OC(=O)[C@H](Cc2ccc(OC)cc2)N(C)C(=O)[C@@H]2CCCN2C(=O)[C@H](CC(C)C)NC(=O)[C@@H](C)C(=O)[C@H](C(C)C)OC(=O)C[C@@H]1O [Compound 3, Z-Didemnin A] (Cbz-[dNMeL]T[X1]LP[NMeY](Me); ester 2-C)
ratio LbV (LC50)/MLR (IC50) [2]: 2
ratio LcV (LC50)/MLR (IC50) [3]: 7400

CC[C@H](C)[C@H]1NC(=O)[C@@H](NC(=O)[C@@H](CC(C)C)N(C)C(=O)[C@@H]2CCCN2C(=O)[C@H](C)OC(=O)[C@H](CCC(N)=O)NC(=O)[C@@H]2CCC(=O)N2)[C@@H](C)OC(=O)[C@H](Cc2ccc(OC)cc2)N(C)C(=O)[C@@H]2CCCN2C(=O)[C@H](CC(C)C)NC(=O)[C@@H](C)C(=O)[C@H](C(C)C)OC(=O)C[C@@H]1O [Compound 38, Didemnin M] ([pGlu]Q[Lac]P[dNMeL]T[X1]LP[NMeY](Me); ester 6-C)
ratio LbV (LC50)/MLR (IC50) [2]: 326
ratio LcV (LC50)/MLR (IC50) [3]: > 10,000,000

CC[C@H](C)[C@H]1NC(=O)[C@@H](NC(=O)[C@@H](CC(C)C)N(C)C(=O)[C@@H]2CCCN2C(=O)C(C)C)[C@@H](C)OC(=O)[C@H](Cc2ccc(OC)cc2)N(C)C(=O)[C@@H]2CCCN2C(=O)[C@H](CC(C)C)NC(=O)[C@@H](C)C(=O)[C@H](C(C)C)OC(=O)C[C@@H]1O [Compound 33, [Isobutyryl^9]Didemnin B] (Isobutyryl-P[dNMeL]T[X1]LP[NMeY](Me); ester 3-C)
ratio LbV (LC50)/MLR (IC50) [2]: 6
ratio LcV (LC50)/MLR (IC50) [3]: 60,000

CC[C@H](C)[C@H]1NC(=O)[C@@H](NC(=O)[C@@H](CC(C)C)NC)[C@@H](C)OC(=O)[C@H](Cc2ccc(OC)cc2)N(C)C(=O)[C@@H]2CCCN2C(=O)[C@H](CC(C)C)NC(=O)[C@@H](C)C(=O)[C@@H](C(C)C)OC(=O)C[C@@H]1O [Compound 12, Epididemnin A1] (H-[dNMeL]T[X2]LP[NMeY](Me); ester 2-C)
ratio LbV (LC50)/MLR (IC50) [2]: 1
ratio LcV (LC50)/MLR (IC50) [3]: 120

CC[C@H](C)[C@H]1NC(=O)[C@@H](NC(=O)[C@@H](CC(C)C)N(C)C(=O)[C@H]2CCCN2C(=O)C(C)C)[C@@H](C)OC(=O)[C@H](Cc2ccc(OC)cc2)N(C)C(=O)[C@@H]2CCCN2C(=O)[C@H](CC(C)C)NC(=O)[C@@H](C)C(=O)[C@H](C(C)C)OC(=O)C[C@@H]1O [Compound 34, [Isobutyryl^9, D-Pro^8] Didemnin B] (Isobutyryl-[dP][dNMeL]T[X1]LP[NMeY](Me); ester 3-C)
ratio LbV (LC50)/MLR (IC50) [2]: 8
ratio LcV (LC50)/MLR (IC50) [3]: 9,000

CCCC(=O)N(C)C(CC(C)C)C(=O)NC1C(=O)NC(C(C)CC)C(O)CC(=O)OC(C(C)C)C(=O)C(C)C(=O)NC(CC(C)C)C(=O)N2CCCC2C(=O)N(C)C(Cc2ccc(OC)cc2)C(=O)OC1C (stereo not drawn) [Compound 20, N^α -n-Butyryldidemnin A] (Butyryl-[NMeL]T[X7]LP[NMeY](Me); ester 2-C; configuration not given here)
ratio LbV (LC50)/MLR (IC50) [2]: < 1
ratio LcV (LC50)/MLR (IC50) [3]: 300

CCC(=O)N(C)[C@H](CC(C)C)C(=O)N[C@@H]1C(=O)N[C@H]([C@@H](C)CC)[C@@H](O)CC(=O)O[C@@H](C(C)C)C(=O)[C@H](C)C(=O)N[C@@H](CC(C)C)C(=O)N2CCC[C@H]2C(=O)N(C)[C@@H](Cc2ccc(OC)cc2)C(=O)O[C@@H]1C [Compound 19, N^α -Propionyldidemnin A] (Propionyl-[dNMeL]T[X1]LP[NMeY](Me); ester 2-C)
ratio LbV (LC50)/MLR (IC50) [2]: < 1
ratio LcV (LC50)/MLR (IC50) [3]: 18.000

CC[C@H](C)[C@H]1NC(=O)[C@@H](NC(=O)[C@@H](CC(C)C)N(C)C(=O)[C@@H]2CCCN2)[C@@H](C)OC(=O)[C@H](Cc2ccc(OC)cc2)N(C)C(=O)[C@@H]2CCCN2C(=O)[C@H](CC(C)C)NC(=O)[C@@H](C)C(=O)[C@H](C(C)C)OC(=O)C[C@@H]1O [Compound 28, N^α -(L-Pro)Didemnin A] (H-P[dNMeL]T[X1]LP[NMeY](Me); ester 3-C)
ratio LbV (LC50)/MLR (IC50) [2]: 5
ratio LcV (LC50)/MLR (IC50) [3]: > 10,000

CC[C@H](C)[C@H]1NC(=O)[C@@H](NC(=O)[C@@H](CC(C)C)NC)[C@@H](C)OC(=O)[C@H](Cc2ccc(OC)cc2)N(C)C(=O)[C@@H]2CCCN2C(=O)[C@H](CC(C)C)NC(=O)[C@@H](C)C(=O)[C@H](C(C)C)OC(=O)C[C@@H]1O [Compound 2, Didemnin A] (H-[dNMeL]T[X1]LP[NMeY](Me); ester 2-C)
ratio LbV (LC50)/MLR (IC50) [2]: 15
ratio LcV (LC50)/MLR (IC50) [3]: 11,000

CCCCC(=O)N(C)[C@H](CC(C)C)C(=O)N[C@@H]1C(=O)N[C@H]([C@@H](C)CC)[C@@H](O)CC(=O)O[C@@H](C(C)C)C(=O)[C@H](C)C(=O)N[C@@H](CC(C)C)C(=O)N2CCC[C@H]2C(=O)N(C)[C@@H](Cc2ccc(OC)cc2)C(=O)O[C@@H]1C [Compound 21, N^α -Pentanoyldidemnin A] (Pentanoyl-[dNMeL]T[X1]LP[NMeY](Me); ester 2-C)
ratio LbV (LC50)/MLR (IC50) [2]: < 1
ratio LcV (LC50)/MLR (IC50) [3]: 20,000

CC[C@H](C)[C@H]1NC(=O)[C@@H](NC(=O)[C@@H](CC(C)C)N(C)C(=O)[C@@H]2CCCN2C(=O)[C@H](C)O)[C@@H](C)OC(=O)[C@H](CC2CCCCC2)N(C)C(=O)[C@@H]2CCCN2C(=O)[C@H](CC(C)C)NC(=O)[C@@H](C)C(=O)[C@H](C(C)C)OC(=O)C[C@@H]1O [Compound 16, [H6 -N-MePhe^6]Didemnin B]
ratio LbV (LC50)/MLR (IC50) [2]: 1
ratio LcV (LC50)/MLR (IC50) [3]: > 18,000

CC[C@H](C)[C@H]1NC(=O)[C@@H](NC(=O)[C@@H](CC(C)C)N(C)C(=O)[C@@H](N)CC(C)C)[C@@H](C)OC(=O)[C@H](Cc2ccc(OC)cc2)N(C)C(=O)[C@@H]2CCCN2C(=O)[C@H](CC(C)C)NC(=O)[C@@H](C)C(=O)[C@H](C(C)C)OC(=O)C[C@@H]1O [Compound 27, N-(L-Leu)Didemnin A] (H-L[dNMeL]T[X1]LP[NMeY](Me); ester 3-C)
ratio LbV (LC50)/MLR (IC50) [2]: 5
ratio LcV (LC50)/MLR (IC50) [3]: > 13,000

CCCCCC(=O)N(C)[C@H](CC(C)C)C(=O)N[C@@H]1C(=O)N[C@H]([C@@H](C)CC)[C@@H](O)CC(=O)O[C@@H](C(C)C)C(=O)[C@H](C)C(=O)N[C@@H](CC(C)C)C(=O)N2CCC[C@H]2C(=O)N(C)[C@@H](Cc2ccc(OC)cc2)C(=O)O[C@@H]1C [Compound 22, N^α -Hexanoyldidemnin A] (Hexanoyl-[dNMeL]T[X1]LP[NMeY](Me); ester 2-C)
ratio LbV (LC50)/MLR (IC50) [2]: 5
ratio LcV (LC50)/MLR (IC50) [3]: > 460,000

Where “and” joins values, the source holds several entries; their conditions need not be identical. Equal values may be shown once. Numbered stars: 1 amine (or outer) side, 2 acyl side, 3 side chain; on linkers, the order of the positions; unused ones are H or OH. Bridge positions count the residues as written; N and C are the ends. Square brackets hold non-standard residues; d marks the D form. Peptide text beside a SMILES is read from it. * marks the point of attachment. X2 = CC[C@H](C)[C@@H](N[*:1])[C@@H](O)CC(=O)O[C@@H](C(=O)[C@H](C)C(=O)[*:2])C(C)C; X1 = CC[C@H](C)[C@@H](N[*:1])[C@@H](O)CC(=O)O[C@H](C(=O)[C@H](C)C(=O)[*:2])C(C)C; X6 = CC[C@H](C)[C@@H](N[*:1])[C@H](O)CC(=O)O[C@H](C(=O)[C@H](C)C(=O)[*:2])C(C)C; X7 = CCC(C)C(N[*:1])C(O)CC(=O)OC(C(=O)C(C)C(=O)[*:2])C(C)C; NMeY = CN[CH](Cc1ccc(O)cc1)C(=O)O; dNMeL = CN[C@H](CC(C)C)C(=O)O; pGlu = O=C1CC[C@@H](C(=O)O)N1; NMeL = CN[CH](CC(C)C)C(=O)O; Isobutyryl = CC(C)C(=O)*; Octanoyl = CCCCCCCC(=O)*; Cbz = O=C(OCc1ccccc1)*; Hexanoyl = CCCCCC(=O)*; Pentanoyl = CCCCC(=O)*; Lac = C[C@H](O)C(=O)O; Propionyl = CCC(=O)*; Butyryl = CCCC(=O)*
